No constants are given. Whether binding was seen depends on the method and setting. Binding seen in cells or lysates may run through a third protein. These calls come from enrichment with a bait or labelling near it, and not all partners need be listed. Each block holds one binder with its values, some of them ahead of it.
Target: GSK3-APEX2 (Drosophila) (UniProt P18431)
Assay: proximity labelling; GSK3-APEX2 expressed in germ cells of the Drosophila ovary; 500 uM biotin-phenol for 30 min, 1 mM H2O2 for 1 min; mitochondria isolated and lysed in RIPA; biotinylated proteins enriched on streptavidin beads; mass spectrometry; compared with CD8-APEX2 controls, logFC cut-off …

By UniProt entry, the sequences of proteins in these tests, tags left out.
UniProt P18431: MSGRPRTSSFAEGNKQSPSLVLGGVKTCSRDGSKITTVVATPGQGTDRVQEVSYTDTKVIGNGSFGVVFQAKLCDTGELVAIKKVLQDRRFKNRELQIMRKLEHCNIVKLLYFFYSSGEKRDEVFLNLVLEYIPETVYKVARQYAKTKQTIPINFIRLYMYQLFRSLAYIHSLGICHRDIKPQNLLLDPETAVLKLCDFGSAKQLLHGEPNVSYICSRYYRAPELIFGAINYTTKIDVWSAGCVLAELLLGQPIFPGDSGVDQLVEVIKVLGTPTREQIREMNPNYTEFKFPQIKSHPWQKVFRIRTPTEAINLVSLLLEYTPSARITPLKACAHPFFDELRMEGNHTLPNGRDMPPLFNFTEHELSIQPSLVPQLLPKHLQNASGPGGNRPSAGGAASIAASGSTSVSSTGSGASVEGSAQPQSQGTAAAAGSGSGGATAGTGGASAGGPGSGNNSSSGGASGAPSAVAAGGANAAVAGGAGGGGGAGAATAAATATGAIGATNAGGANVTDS

binding: binds
B1: VDAC (Drosophila) (protein, UniProt Q94920 1-282)
chain: MAPPSYSDLGKQARDIFSKGYNFGLWKLDLKTKTSSGIEFNTAGHSNQESGKVFGSLETKYKVKDYGLTLTEKWNTDNTLFTEVAVQDQLLEGLKLSLEGNFAPQSGNKNGKFKVAYGHENVKADSDVNIDLKGPLINASAVLGYQGWLAGYQTAFDTQQSKLTTNNFALGYTTKDFVLHTAVNDGQEFSGSIFQRTSDKLDVGVQLSWASGTSNTKFAIGAKYQLDDDASVRAKVNNASQVGLGYQQKLRDGVTLTLSTLVDGKNFNAGGHKIGVGLELEA

binding: binds
B2: Tom40 (Drosophila) (protein, UniProt Q9U4L6 1-344)
chain: MGNVLAASSGAPGSGASNLGLGLQEPAPLPSNSGSLTESSSSAEGLDSLAAAKDAALENPGTVEELHKKCKDIQAITFEGAKIMLNKGLSNHFQVSHTINMSNVVPSGYRFGATYVGTKEFSPTEAFPVLLGDIDPAGNLNANVIHQFSARLRCKFASQIQESKVVASQLTTDYRGSDYTLSLTVANPSIFTNSGVVVGQYLQSVTPALALGSELAYQFGPNVPGRQIAIMSVVGRYTAGSSVWSGTLGQSGLHVCYYQKASDQLQIGAEVETSLRMQESVATLAYQIDLPKANLVFRGGIDSNWQIFGVLEKRLAPLPFTLALSGRMNHVKNNFRLGCGLMIG

— PMC9343427
